{"source": "patent US20230184759A1", "about": "“IN VITRO METHOD FOR DETECTION OF INFECTIONS CAUSED BY PSEUDOMONAS AERUGINOSA” (CONSEJO SUPERIOR DE INVESTIGACIONES CIENTIFICAS (CSIC), priority 2020, published 2023)", "type_in_all_cases": "binding, rabbit", "key": {"As382": {"tested_on": "As382", "assay": "Competitive indirect ELISA for detection of HHQ (As382, coating antigen I-7)", "description": "(§1) The competitive assay was carried out in a 96 well Maxisorp flat-bottom plates, coated using 100 μL of a BSA conjugate solution in coating buffer pH=9.6. Then, plates were covered with adhesive plate sealer and incubated overnight at 4° C. The day after, plates were washed with PBST (4×300 μL) using the platewasher Biotek ELx405 HT. Sequentially, 50 μL of the corresponding sample solution, containing the analyte HHQ, PQS or HQNO (2 μM to 0.13 nM) or MH medium were added, followed by 50 μL addition of a fixed As dilution and left without agitation 30 min at RT. After another washing step, a 1/6000 dilution of goat AntiRabbit IgG-HRP in PBST was added and incubated 30 min at RT. After a final washing, 100 μL of a substrate solution was added and left 30 min at RT in the dark. Once the time was consumed, the enzymatic reaction was stopped by adding 50 μl of H2SO4 4M solution and the absorbances read at 450 nm. Absorbance data were plotted and analyzed using GraphPad software. The standard calibration curve was fitted to a four-parameter equation according to the following formula: […], where A is the maximum absorbance, B is the minimum absorbance, C is the concentration producing 50% of the maximal absorbance, and D is the slope at the inflection point of the sigmoid curve. Unless otherwise indicated, the data presented correspond to the average of at least two well replicates.\n(§2) Regarding specificity studies, it was followed the experimental procedure for indirect competitive ELISA described above. It was assessed the avidity of As versus other quinolone effector molecules of the pqs system from P. aeruginosa. Each assay was run using HHQ, PQS and HQNO as analyte. Cross reactivity was calculated through the equation: […]."}, "As389": {"tested_on": "As389", "assay": "Competitive indirect ELISA for detection of HQNO (As389, coating antigen I-5)", "conditions": "I-5 0.250 μg/mL", "description": "as §1, §2"}, "As385": {"tested_on": "As385", "assay": "Competitive indirect ELISA for detection of PQS (As385, coating antigen I-5)", "conditions": "I-5 0.039 μg/mL", "description": "as §1, §2"}, "[1]": {"conditions": "MH diluted 1/5, As382 dil. 1/64000, I-7 0.156 μg/mL"}, "[2]": {"conditions": "PBST, As382 dil. 1/32000, I-7 0.313 μg/mL"}, "[3]": {"conditions": "MH diluted 1/5, As389 dil. 1/16000"}, "[4]": {"conditions": "MH diluted 1/10, As385 dil. 1/64000"}, "[5]": {"conditions": "PBS + 0.01% Tween + 0.1 mM EDTA, As385 dil. 1/48000"}}, "data": [{"compound": "CCCCCCCc1cc(=O)c2ccccc2[nH]1", "note": "[HHQ, 2-heptyl-4-quinolone]", "values": [{"measurement": "Dynamic Range, lower limit", "setting": "As382; [1]", "result": "0.448 ± 0.081", "unit": "to"}, {"measurement": "Dynamic Range, upper limit", "setting": "As382; [1]", "result": "21.605 ± 4.736"}, {"measurement": "LOD", "setting": "As382; [1]", "result": "0.167 ± 0.051"}, {"measurement": "Slope", "setting": "As382; [1]", "result": "−0.704 ± 0.015"}, {"measurement": "Dynamic Range, lower limit", "setting": "As382; [2]", "result": "0.894 ± 0.214", "unit": "to"}, {"measurement": "Dynamic Range, upper limit", "setting": "As382; [2]", "result": "22.797 ± 3.691"}, {"measurement": "LOD", "setting": "As382; [2]", "result": "0.341 ± 0.132"}, {"measurement": "Slope", "setting": "As382; [2]", "result": "−0.874 ± 0.114"}]}, {"compound": "CCCCCCCc1cc(=O)c2ccccc2n1O", "note": "[HQNO, 2-heptyl-4-quinolone N-oxide]", "values": [{"measurement": "Dynamic Range, lower limit", "setting": "As389; [3]", "result": "0.413 ± 0.102", "unit": "to"}, {"measurement": "Dynamic Range, upper limit", "setting": "As389; [3]", "result": "17.044 ± 1.076"}, {"measurement": "LOD", "setting": "As389; [3]", "result": "0.147 ± 0.053"}, {"measurement": "Slope", "setting": "As389; [3]", "result": "−0.720 ± 0.064"}, {"measurement": "Dynamic Range, lower limit", "setting": "As389; PBS at pH = 6.5, As389 dil. 1", "result": "0.723 ± 0.181", "unit": "to"}, {"measurement": "Dynamic Range, upper limit", "setting": "As389; PBS at pH = 6.5, As389 dil. 1", "result": "26.707 ± 0.958"}, {"measurement": "LOD", "setting": "As389; PBS at pH = 6.5, As389 dil. 1", "result": "0.266 ± 0.087"}, {"measurement": "Slope", "setting": "As389; PBS at pH = 6.5, As389 dil. 1", "result": "−0.754 ± 0.037"}]}, {"compound": "CCCCCCCc1[nH]c2ccccc2c(=O)c1O", "note": "[PQS, 2-heptyl-3-hydroxy-4-quinolone]", "values": [{"measurement": "Dynamic Range, lower limit", "setting": "As385; [4]", "result": "0.973 ± 0.250", "unit": "to"}, {"measurement": "Dynamic Range, upper limit", "setting": "As385; [4]", "result": "36.157 ± 6.197"}, {"measurement": "LOD", "setting": "As385; [4]", "result": "0.362 ± 0.137"}, {"measurement": "Slope", "setting": "As385; [4]", "result": "−0.734 ± 0.110"}, {"measurement": "Dynamic Range, lower limit", "setting": "As385; [5]", "result": "0.528 ± 0.043", "unit": "to"}, {"measurement": "Dynamic Range, upper limit", "setting": "As385; [5]", "result": "24.365 ± 3.182"}, {"measurement": "LOD", "setting": "As385; [5]", "result": "0.169 ± 0.012"}, {"measurement": "Slope", "setting": "As385; [5]", "result": "−0.723 ± 0.006"}]}]}
